Reference: PubChem BioAssay AID540256 (National Center for Advancing Translational Sciences (NCATS), 2011)
Out of some 300,000 compounds screened, about 3,700 (1.2%) were called active. Inconclusive means that the source gave no clear call. Such entries were picked first, then a sample of the others. Calls follow the shape of the full dose curve; tested in HEK293 cells. Potencies of inconclusive entries are doubtful fits and often do not repeat.

Test: qHTS for Inhibitors of binding or entry into cells for Lassa Virus; also: nearly all actives have a fitted effect of over 50% in size
Details: Lassa virus pseudotype entry inhibition, cell reporter; series mostly up to 37.9 µM
Potency is read from the fitted curve at half-maximal effect.

Row | SMILES | Potency
1 | O=C(Nc1ccc2oc(-c3ccc(Cl)c(Cl)c3)nc2c1)c1ncn[nH]1 | inconclusive: 1.41 µM [activator, partial curve, poor fit]
2 | CCn1c(CC(=O)Nc2ccc(F)cc2)nnc1SCC(=O)NC1CCCC1 | inconclusive: 3.16 µM [inhibitor, single point]
3 | O=C(Nc1cc(C(F)(F)F)ccc1Cl)c1ccncc1 | inactive
4 | O=C(CSc1ccc(Cl)cc1)Nc1cccc(-c2nc3ccccc3[nH]2)c1 | inconclusive: 7.08 µM [inhibitor, partial curve, poor fit]
5 | CCC(C(=O)NC1CCCC1)N(C(=O)Cn1nnc(-c2ccc(C)cc2)n1)C1CCCC1 (configuration not stated) | inconclusive: 12.6 µM [inhibitor, partial curve, poor fit]
6 | CCN1C(=O)c2ccccc2Sc2ccc(NC(=O)c3ccc(C)c(F)c3)cc21 | inconclusive: 35.5 µM [inhibitor, partial curve, poor fit]
7 | Fc1cccc(CSc2ccc3nnc(-c4ccccn4)n3n2)c1 | inconclusive: 35.5 µM [inhibitor, single point]
8 | CN(C)C(=S)NC1(C)CCS(=O)(=O)C1 (configuration not stated) | inactive
9 | CC(C)(C)C(=O)Nc1sc(-c2ccccc2)cc1C(=O)O | inconclusive: 2.24 µM [inhibitor, full curve, poor fit]
10 | O=C(c1ccc(S(=O)(=O)N2CCCCCC2)cc1)N(c1ccccn1)C1CCCCC1 | inconclusive: 20.6 µM [inhibitor, partial curve, poor fit]
11 | Cc1[nH]nc2nc(SCC(=O)NCC3CCCO3)n(-c3ccc(Br)cc3)c(=N)c12 (configuration not stated) | inconclusive: 35.5 µM [inhibitor, partial curve, poor fit]
12 | COc1ccccc1/C(C)=N/NC(=S)NCc1ccccc1 | inconclusive: 7.08 µM [inhibitor, partial curve, poor fit]
13 | Cc1ccccc1-n1c(=O)n(Cc2ccccc2)c(=O)c2[nH]cnc21 | active: 12.6 µM
14 | O=C(Cn1nnc2sc3c(c2c1=O)CCCC3)Nc1ccc(F)c(Cl)c1 | inactive
15 | Cc1cc(-c2ccccc2)n2ncc(-c3ccccc3)c2n1 | inconclusive: 7.94 µM [inhibitor, partial curve, poor fit]
16 | COc1ccc(C(=O)COC(=O)C(CCSC)NC(=O)COc2ccccc2)cc1 (configuration not stated) | inconclusive: 35.5 µM [inhibitor, single point]
17 | COc1ccc(-c2nnc(-c3ccccc3O)o2)cc1 | inconclusive: 10 µM [inhibitor, partial curve, poor fit]
18 | COc1ccc2c(c1OC)C(=O)OC2Nc1nc(-c2cc3ccccc3oc2=O)cs1 (configuration not stated) | inconclusive: 8.91 µM [inhibitor, partial curve, poor fit]
19 | CC(=O)N1CCC(N(CCN2CCOCC2)C(=S)Nc2cc(C)cc(C)c2)CC1 | inactive
20 | S=C(NCCN(C1CCCCC1)C1CCCC1)Nc1cccc(Cl)c1 | inconclusive: 4.47 µM [inhibitor, partial curve, poor fit]
21 | O=C(O)c1cc(S(=O)(=O)N2CCN(C(c3ccccc3)c3ccccc3)CC2)ccc1Cl | inactive
22 | N#Cc1cc2c(nc1SCc1ccccc1)CCCCC2 | inconclusive: 15.8 µM [inhibitor, partial curve, poor fit]
23 | Cc1ccc2oc(=O)n(CCNC(=O)Nc3ccccc3Cl)c2c1 | inconclusive: 6.31 µM [activator, single point]

Row | SMILES | Potency
24 | O=C(CCn1c(=O)c2ccccc2n(Cc2cccc([N+](=O)[O-])c2)c1=O)N1CCc2ccccc2C1 | inconclusive: 1.26 µM [activator, partial curve, poor fit]
25 | CC1CN(CC(O)COc2ccc(C(C)C)cc2)CC(C)O1 (configuration not stated) | inactive
26 | S=C(NCCc1ccccc1)N1CCN(Cc2ccccc2)CC1 | inactive
27 | O=C(Nc1ccccc1)OCCOc1cccc(Br)c1 | inactive
28 | O=C(O)Cc1ccc(NC(=S)NCc2ccco2)cc1 | inconclusive: 20 µM [inhibitor, partial curve]
29 | CCC12CN3CC(CC)(CN(C1)C3c1ccc(OCc3ccccc3)cc1)C2=O (configuration not stated) | inactive
30 | COCCN(CCOC)C(=O)CCn1c(=O)oc2ccccc21 | inconclusive: 29.1 µM [activator, partial curve, poor fit]
31 | COc1ccc(N(CC(=O)NCc2ccco2)C(=O)CCC(=O)Nc2ccccn2)cc1 | inconclusive: 6.31 µM [inhibitor, single point]
32 | CN(C)c1ccc(NC(=O)c2ccc3nsnc3c2)cc1 | inconclusive: 10.3 µM [inhibitor, partial curve]
33 | COC(=O)c1c2[n+](cc3cc(OC)c(OC)cc13)CCc1cc(OC)c(OC)cc1-2 | inactive
34 | Cc1ccc(-c2noc(C3CCN(S(=O)(=O)c4ccc5c(c4)OCCO5)CC3)n2)o1 | inconclusive: 11.6 µM [inhibitor, partial curve, poor fit]
35 | Cc1cc(NC(=O)COC(=O)c2c(C)nn(Cc3ccccc3)c2C)no1 | inconclusive: 35.5 µM [inhibitor, single point]
36 | NC(N)=NCC(O)CN(c1ccccc1)c1ccccc1 (configuration not stated) | inactive
37 | Cc1noc(C)c1S(=O)(=O)N1CCC(C(=O)N2CCN(c3ccccc3Cl)CC2)CC1 | inactive
38 | CCCCCCn1c(CN2CCC(C)CC2)nc2c1c(=O)n(C)c(=O)n2C | inconclusive: 18.3 µM [inhibitor, single point]
39 | COC(=O)C1=C2CCO[C@@H]2[C@H]2[C@@H](C)[C@H](OC)c3ccccc3[C@H]12 | inconclusive: 0.473 µM [activator, partial curve, poor fit]
40 | Cc1ccc(NC(=S)N(CCN2CCOCC2)Cc2ccccc2F)cc1Cl | inconclusive: 0.501 µM [inhibitor, full curve, poor fit]
41 | COc1cc(OC)cc(C(=O)Nc2ccc3nc(N4CCC(C)CC4)cc(C)c3c2)c1 | inactive
42 | Cc1sc(NC(=O)c2ccco2)c(C(c2ccc(F)cc2)N2CCN(C)CC2)c1C (configuration not stated) | inconclusive: 20 µM [inhibitor, partial curve, poor fit]
43 | CCCCOc1cccc(C(=O)Nc2cccc3ccc(C)nc23)c1 | inconclusive: 35.5 µM [activator, single point]
44 | Cn1c(=O)n(C)c2cc(N3CCOCC3)c(NC(=O)c3ccc(F)cc3)cc21 | inactive
45 | CCN1CCC2(CCNC2)C1 (configuration not stated) | inconclusive: 0.461 µM [activator, partial curve, poor fit]
46 | Cc1nn(Cc2nnc(SCC(=O)Nc3cccc(C(F)(F)F)c3)n2C)c(C)c1[N+](=O)[O-] | inconclusive: 25.1 µM [inhibitor, partial curve, poor fit]

Row | SMILES | Potency
47 | Cc1cc(/C=C(\C#N)C(=O)Nc2ccccc2F)c(C)[nH]1 | inconclusive: 0.501 µM [activator, partial curve, poor fit]
48 | O=C(NC1CCN(S(=O)(=O)c2ccccc2)CC1)C1CCCCC1 | inactive
49 | CCOC(=O)c1nn(C)c(C)c1Cl | inconclusive: 1.26 µM [inhibitor, single point]
50 | CCOc1ccc(C(=O)N2CCCC2)cc1 | inactive
51 | Cc1cc(C(=O)CSc2nnc(N)s2)c(C)n1C1CC1 | inactive
52 | COc1ccc(N2CCN(c3nc4c(c(=O)n(C)c(=O)n4C)n3Cc3ccccc3)CC2)cc1 | active: 8.91 µM
53 | COc1ccc(N2CCN(C(c3ccccc3)c3nnc(-c4ccccc4Cl)o3)CC2)cc1 (configuration not stated) | inconclusive: 6.31 µM [inhibitor, partial curve, poor fit]
54 | CC(C)c1nnc(NC(=O)CSc2nc3ccccc3s2)s1 | inactive
55 | Cc1cc(C(=O)OC(C(=O)Nc2cccc(C(F)(F)F)c2)c2ccccc2)c(C)o1 (configuration not stated) | inconclusive: 35.5 µM [inhibitor, single point]
56 | O=c1c2cnn(-c3ccccc3)c2nc(-c2ccco2)n1-c1ccccc1 | inconclusive: 20.6 µM [inhibitor, single point]
57 | N#Cc1c(N)nc2c(c1-c1ccncc1)CCCCCC2 | inconclusive: 1.16 µM [inhibitor, single point]
58 | CCc1ccc(-c2nc3c(c(SCc4ccc(F)cc4)n2)Cc2c(CO)cnc(C)c2O3)cc1 | inconclusive: 6.31 µM [activator, partial curve, poor fit]
59 | COc1cccc(CNC(=O)C(=O)NCC2OCCCN2S(=O)(=O)c2cc(C)ccc2C)c1 (configuration not stated) | inactive
60 | COc1cc(NC(=O)c2cccs2)ccc1NC(=O)c1ccco1 | inconclusive: 5.62 µM [activator, partial curve, poor fit]
61 | O=C(O)c1cccc(NC(=O)c2cn(-c3ccccc3)nc2-c2cccc(Br)c2)c1 | inconclusive: 20 µM [inhibitor, partial curve, poor fit]
62 | Cc1ccc(S(=O)(=O)c2nc(-c3ccccc3)oc2N2CCC(C(N)=O)CC2)cc1 | inconclusive: 2.24 µM [inhibitor, partial curve, poor fit]
63 | O=C(CCN1CCc2ccccc2CC1)c1ccc2c(c1)OCCO2 | inconclusive: 32.6 µM [inhibitor, partial curve, poor fit]
64 | CC(C)OCCCN1C(=O)c2[nH]nc(-c3ccccc3O)c2C1c1cccc(Cl)c1 (configuration not stated) | inconclusive: 5.8 µM [inhibitor, full curve]
65 | CCC(C)NC(=O)C1CCC(CNS(=O)(=O)c2cccc3nsnc23)CC1 (configuration not stated) | inactive
66 | CN(C)CCCNc1ncnc2oc(-c3ccccc3)c(-c3ccccc3)c12 | inconclusive: 35.5 µM [inhibitor, single point]
67 | COc1cccc(C(=O)Nc2ccc(C(F)(F)F)n(C)c2=O)c1 | inactive

An excerpt from above in order of SMILES length, falling.
Row | SMILES | Potency
59 | COc1cccc(CNC(=O)C(=O)NCC2OCCCN2S(=O)(=O)c2cc(C)ccc2C)c1 (configuration not stated) | inactive
53 | COc1ccc(N2CCN(C(c3ccccc3)c3nnc(-c4ccccc4Cl)o3)CC2)cc1 (configuration not stated) | inconclusive: 6.31 µM [inhibitor, partial curve, poor fit]
47 | Cc1cc(/C=C(\C#N)C(=O)Nc2ccccc2F)c(C)[nH]1 | inconclusive: 0.501 µM [activator, partial curve, poor fit]
